Measurements as given in the supplement of paper PMC10849652.
The list shows a part of the results.

Protein sequences, listed by entry. Tags and fused reporters are not part of them. Lines headed by an entry give the natural chain unless they say otherwise; changes in a name come on top.
UniProt Q99956: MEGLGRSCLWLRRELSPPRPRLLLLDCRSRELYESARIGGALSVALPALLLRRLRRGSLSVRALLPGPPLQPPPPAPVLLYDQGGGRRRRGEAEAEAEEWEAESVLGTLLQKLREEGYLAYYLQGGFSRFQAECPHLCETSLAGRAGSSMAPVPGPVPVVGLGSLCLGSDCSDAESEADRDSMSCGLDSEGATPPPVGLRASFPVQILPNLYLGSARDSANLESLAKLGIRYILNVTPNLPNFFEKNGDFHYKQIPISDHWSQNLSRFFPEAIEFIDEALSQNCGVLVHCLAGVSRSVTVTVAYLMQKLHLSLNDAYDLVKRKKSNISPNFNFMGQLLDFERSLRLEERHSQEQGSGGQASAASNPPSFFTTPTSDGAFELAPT
UniProt P57772: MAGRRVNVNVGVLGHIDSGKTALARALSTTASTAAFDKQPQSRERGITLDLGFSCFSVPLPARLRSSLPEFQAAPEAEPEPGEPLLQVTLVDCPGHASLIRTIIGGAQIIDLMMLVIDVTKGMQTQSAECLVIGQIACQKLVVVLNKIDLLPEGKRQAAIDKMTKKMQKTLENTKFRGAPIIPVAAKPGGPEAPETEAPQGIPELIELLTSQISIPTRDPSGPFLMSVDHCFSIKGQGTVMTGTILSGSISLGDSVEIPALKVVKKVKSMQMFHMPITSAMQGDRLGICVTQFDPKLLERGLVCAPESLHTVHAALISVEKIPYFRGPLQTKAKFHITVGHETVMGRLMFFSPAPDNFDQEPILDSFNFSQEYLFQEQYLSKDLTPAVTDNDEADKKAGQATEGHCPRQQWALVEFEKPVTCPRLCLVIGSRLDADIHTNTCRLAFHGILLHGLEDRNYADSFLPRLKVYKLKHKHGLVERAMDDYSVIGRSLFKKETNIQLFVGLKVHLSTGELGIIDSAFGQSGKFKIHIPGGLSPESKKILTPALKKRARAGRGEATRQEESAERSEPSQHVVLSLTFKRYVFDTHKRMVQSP
UniProt Q6P2E9: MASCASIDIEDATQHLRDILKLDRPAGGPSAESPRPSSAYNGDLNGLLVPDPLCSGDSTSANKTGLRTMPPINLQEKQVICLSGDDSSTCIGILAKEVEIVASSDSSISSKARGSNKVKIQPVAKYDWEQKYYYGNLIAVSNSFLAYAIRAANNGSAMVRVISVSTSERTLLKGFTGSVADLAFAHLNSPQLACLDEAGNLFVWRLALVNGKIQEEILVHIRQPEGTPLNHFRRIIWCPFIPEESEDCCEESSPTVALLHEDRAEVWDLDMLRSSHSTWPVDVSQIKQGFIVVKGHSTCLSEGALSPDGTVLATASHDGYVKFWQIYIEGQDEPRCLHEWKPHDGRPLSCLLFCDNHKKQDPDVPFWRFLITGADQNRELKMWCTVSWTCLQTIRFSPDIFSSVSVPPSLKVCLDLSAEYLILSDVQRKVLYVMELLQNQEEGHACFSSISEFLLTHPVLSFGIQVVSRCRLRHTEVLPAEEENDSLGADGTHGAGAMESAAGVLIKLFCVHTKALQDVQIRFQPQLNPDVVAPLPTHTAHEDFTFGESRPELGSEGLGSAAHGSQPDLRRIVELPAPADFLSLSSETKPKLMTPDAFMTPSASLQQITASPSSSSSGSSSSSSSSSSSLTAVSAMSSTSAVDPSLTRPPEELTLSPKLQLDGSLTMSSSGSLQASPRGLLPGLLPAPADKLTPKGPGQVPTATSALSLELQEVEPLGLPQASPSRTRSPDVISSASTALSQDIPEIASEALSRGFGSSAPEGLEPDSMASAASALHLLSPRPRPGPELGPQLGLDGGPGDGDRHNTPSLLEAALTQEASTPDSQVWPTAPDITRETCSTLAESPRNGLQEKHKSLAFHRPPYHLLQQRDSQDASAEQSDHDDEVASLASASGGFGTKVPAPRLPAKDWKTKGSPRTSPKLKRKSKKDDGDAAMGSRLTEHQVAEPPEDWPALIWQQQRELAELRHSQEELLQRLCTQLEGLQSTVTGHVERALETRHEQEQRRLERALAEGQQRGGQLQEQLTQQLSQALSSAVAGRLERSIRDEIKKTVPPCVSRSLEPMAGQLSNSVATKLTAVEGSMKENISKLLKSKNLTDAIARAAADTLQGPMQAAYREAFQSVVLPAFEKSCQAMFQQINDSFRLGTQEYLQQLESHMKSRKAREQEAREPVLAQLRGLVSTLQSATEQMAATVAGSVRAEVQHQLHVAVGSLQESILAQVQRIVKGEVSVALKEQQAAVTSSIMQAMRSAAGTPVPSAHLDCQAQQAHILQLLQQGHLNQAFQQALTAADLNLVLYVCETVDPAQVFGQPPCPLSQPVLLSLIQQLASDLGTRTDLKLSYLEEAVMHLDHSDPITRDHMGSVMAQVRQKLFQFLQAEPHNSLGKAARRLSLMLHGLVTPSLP
UniProt Q15125: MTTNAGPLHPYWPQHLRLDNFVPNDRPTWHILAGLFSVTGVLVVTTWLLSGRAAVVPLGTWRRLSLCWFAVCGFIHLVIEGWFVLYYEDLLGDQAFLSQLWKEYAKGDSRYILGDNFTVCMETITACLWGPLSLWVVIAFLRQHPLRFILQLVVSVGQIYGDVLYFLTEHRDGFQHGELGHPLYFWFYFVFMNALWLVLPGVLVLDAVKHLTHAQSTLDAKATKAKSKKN
UniProt O95620: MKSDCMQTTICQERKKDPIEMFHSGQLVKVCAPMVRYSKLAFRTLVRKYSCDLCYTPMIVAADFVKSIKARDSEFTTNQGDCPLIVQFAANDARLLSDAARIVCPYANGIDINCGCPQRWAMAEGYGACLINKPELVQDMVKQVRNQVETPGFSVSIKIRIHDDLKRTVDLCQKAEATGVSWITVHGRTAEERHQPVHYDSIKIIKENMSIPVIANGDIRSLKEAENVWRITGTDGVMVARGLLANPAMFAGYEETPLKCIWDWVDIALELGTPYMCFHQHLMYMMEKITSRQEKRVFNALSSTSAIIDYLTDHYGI
UniProt Q5VYK3, whole entry, looked up: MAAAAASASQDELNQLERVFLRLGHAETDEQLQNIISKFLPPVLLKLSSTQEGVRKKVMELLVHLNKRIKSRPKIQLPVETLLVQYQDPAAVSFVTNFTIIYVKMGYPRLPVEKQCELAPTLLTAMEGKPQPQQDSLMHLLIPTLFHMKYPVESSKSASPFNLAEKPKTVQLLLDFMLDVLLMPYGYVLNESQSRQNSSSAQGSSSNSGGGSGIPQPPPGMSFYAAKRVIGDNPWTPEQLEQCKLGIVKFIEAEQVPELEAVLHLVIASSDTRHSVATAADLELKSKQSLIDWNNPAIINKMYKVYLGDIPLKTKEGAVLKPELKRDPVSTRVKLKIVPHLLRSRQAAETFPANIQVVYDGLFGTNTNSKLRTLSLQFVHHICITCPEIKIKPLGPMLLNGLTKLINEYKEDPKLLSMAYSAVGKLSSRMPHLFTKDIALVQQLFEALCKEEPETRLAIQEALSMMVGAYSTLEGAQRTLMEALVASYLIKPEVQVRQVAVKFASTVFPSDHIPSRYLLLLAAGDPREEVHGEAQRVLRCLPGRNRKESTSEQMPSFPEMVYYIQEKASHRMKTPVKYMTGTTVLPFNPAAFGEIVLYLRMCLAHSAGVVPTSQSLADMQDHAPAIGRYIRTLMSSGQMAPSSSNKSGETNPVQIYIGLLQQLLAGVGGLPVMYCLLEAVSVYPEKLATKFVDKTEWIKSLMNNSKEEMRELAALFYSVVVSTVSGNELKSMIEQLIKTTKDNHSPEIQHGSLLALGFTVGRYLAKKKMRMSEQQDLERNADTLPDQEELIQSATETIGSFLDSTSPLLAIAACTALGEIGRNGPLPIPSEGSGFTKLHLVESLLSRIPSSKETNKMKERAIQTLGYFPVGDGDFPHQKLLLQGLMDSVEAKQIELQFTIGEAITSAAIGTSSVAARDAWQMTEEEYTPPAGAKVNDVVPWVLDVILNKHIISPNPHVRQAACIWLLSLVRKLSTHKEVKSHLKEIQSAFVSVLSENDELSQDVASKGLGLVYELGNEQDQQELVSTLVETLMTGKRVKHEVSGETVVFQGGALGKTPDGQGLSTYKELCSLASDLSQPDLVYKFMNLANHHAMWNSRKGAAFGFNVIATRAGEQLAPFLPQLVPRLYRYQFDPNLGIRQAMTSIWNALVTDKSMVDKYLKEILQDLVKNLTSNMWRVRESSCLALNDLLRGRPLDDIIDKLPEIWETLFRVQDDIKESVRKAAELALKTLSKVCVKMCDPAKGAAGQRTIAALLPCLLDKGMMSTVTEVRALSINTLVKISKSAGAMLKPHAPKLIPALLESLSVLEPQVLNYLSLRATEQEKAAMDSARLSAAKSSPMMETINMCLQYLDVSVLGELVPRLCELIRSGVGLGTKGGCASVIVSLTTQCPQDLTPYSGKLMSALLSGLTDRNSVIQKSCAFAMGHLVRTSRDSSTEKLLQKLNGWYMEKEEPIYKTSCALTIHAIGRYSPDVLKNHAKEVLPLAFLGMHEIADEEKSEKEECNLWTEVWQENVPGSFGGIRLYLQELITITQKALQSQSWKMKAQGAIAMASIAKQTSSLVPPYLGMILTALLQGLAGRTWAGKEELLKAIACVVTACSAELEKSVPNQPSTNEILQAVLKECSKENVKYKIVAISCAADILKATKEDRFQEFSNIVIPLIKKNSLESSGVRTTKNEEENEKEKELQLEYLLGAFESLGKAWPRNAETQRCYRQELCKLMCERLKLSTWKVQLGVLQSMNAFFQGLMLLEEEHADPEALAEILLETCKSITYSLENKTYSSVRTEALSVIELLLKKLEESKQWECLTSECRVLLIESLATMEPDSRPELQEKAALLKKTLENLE
UniProt Q9H4M9: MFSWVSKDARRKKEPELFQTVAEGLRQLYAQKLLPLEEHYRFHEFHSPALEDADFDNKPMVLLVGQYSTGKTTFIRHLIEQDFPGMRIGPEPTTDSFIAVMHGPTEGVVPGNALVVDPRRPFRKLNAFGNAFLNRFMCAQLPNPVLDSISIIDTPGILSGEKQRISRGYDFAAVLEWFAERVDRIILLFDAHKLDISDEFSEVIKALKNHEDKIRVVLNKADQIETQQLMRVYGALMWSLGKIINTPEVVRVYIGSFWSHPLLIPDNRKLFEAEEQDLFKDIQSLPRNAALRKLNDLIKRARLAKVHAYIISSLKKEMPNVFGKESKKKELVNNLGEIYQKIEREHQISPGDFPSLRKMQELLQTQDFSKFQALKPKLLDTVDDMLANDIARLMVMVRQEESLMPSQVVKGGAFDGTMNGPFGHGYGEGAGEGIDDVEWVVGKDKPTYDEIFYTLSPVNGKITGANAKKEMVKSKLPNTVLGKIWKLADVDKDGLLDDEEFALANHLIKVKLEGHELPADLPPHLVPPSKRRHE
UniProt Q16610: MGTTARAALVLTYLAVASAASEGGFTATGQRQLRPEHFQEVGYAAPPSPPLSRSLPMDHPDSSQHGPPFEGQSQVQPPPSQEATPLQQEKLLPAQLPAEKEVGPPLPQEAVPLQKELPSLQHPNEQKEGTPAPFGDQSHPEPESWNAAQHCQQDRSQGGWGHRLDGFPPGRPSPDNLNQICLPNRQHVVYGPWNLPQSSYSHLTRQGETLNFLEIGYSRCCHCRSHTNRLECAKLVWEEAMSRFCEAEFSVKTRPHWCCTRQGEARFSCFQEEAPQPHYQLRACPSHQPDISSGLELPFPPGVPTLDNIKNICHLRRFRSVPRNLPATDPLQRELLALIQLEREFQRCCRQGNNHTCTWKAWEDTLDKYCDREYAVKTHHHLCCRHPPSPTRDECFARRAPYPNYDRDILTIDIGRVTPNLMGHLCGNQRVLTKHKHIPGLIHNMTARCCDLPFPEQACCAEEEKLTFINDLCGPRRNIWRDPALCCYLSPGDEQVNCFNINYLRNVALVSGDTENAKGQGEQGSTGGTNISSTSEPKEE
UniProt Q8N6R0: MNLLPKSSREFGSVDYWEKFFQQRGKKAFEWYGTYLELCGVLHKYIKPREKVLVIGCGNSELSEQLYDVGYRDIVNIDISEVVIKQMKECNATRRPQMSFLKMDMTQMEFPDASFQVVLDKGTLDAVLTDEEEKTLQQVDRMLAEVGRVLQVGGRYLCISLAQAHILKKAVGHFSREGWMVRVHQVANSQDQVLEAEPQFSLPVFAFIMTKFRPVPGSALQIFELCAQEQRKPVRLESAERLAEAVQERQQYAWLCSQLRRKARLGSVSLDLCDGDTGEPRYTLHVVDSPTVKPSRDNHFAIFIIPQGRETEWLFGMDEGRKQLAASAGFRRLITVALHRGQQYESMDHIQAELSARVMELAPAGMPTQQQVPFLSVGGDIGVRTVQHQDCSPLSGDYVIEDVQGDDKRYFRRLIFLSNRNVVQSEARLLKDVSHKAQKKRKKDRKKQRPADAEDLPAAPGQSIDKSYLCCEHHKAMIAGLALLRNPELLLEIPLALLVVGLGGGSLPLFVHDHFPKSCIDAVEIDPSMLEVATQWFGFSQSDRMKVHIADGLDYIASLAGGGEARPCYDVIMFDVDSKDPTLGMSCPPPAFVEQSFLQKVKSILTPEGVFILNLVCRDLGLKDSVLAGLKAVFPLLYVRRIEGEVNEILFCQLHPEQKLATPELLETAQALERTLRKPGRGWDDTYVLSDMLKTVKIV

Legend:
Assay in all cases: log2 fold change, soluble protein after heating vs DMSO (PISA); higher = thermal stabilisation; K562 lysate, 10 uM; active = over 0.2 and 3.5 SD of the protein, either way, in both replicates (recomputed)
nilotinib = compound: Cc1cn(-c2cc(NC(=O)c3ccc(C)c(Nc4nccc(-c5cccnc5)n4)c3)cc(C(F)(F)F)c2)cn1 [nilotinib]
How it was run: (§1)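 K562 pellets were dounce-homogenised in PBS pH 7.4 containing 1 mM MgCl2, and the crude extract, at 1 mg/mL protein, was exposed to 10 μM compound for 30 min. Aliquots were heated for 3 min across 48°C-58°C, pooled, brought to 0.5% NP-40 at 4°C and spun at 21,000xg for 90 min, with the supernatant taken as soluble protein. TMTpro 16plex LC-MS/MS with equalised channel sums quantified that protein. Values are log-two fold changes in thermal stability relative to solvent controls, taken from duplicates.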

[1] = compound: Cc1nc(Nc2n[nH]c3c2CN(C(=O)N[C@H](CN(C)C)c2ccccc2)C3(C)C)c2sccc2n1
How it was run: as §1

dasatinib = compound: Cc1nc(Nc2ncc(C(=O)Nc3c(C)cccc3Cl)s2)cc(N2CCN(CCO)CC2)n1 [dasatinib]
How it was run: as §1

[2] = compound: Cc1ncc(-c2ccnc(Nc3ccc(S(C)(=O)=O)cc3)n2)n1C(C)C
How it was run: as §1

[3] = compound: Cn1cc(-c2ccc3c(c2)CCN3C(=O)Cc2cccc(C(F)(F)F)c2)c2c(N)ncnc21
How it was run: as §1

quisinostat = compound: Cn1cc(CNCC2CCN(c3ncc(C(=O)NO)cn3)CC2)c2ccccc21 [quisinostat]
How it was run: as §1

tipifarnib = compound: Cn1cncc1[C@@](N)(c1ccc(Cl)cc1)c1ccc2c(c1)c(-c1cccc(Cl)c1)cc(=O)n2C [tipifarnib]
How it was run: as §1

[4] = compound: NC(=O)Nc1cc(-c2cccc(F)c2)sc1C(=O)N[C@H]1CCCNC1
How it was run: as §1

[5] = compound: NC(=O)c1cnc(N[C@@H]2CCCC[C@@H]2N)nc1Nc1cccc(-n2nccn2)c1
How it was run: as §1

[6] = compound: NC1(c2ccc(-c3nc4ccn5c(=O)[nH]nc5c4cc3-c3ccccc3)cc2)CCC1
How it was run: as §1

Measured: log2 fold change

DTWD1 (UniProt Q8N5C7)
inactive: nilotinib 0.007 | [1] -0.039 | dasatinib -0.034 | [2] 0.01 | [3] -0.02 | quisinostat -0.067 | tipifarnib -0.007 | [4] 0.002 | [5] -0.008 | [6] 0.049

EARS2 (UniProt Q5JPH6)
inactive: nilotinib -0.043 | [1] -0.023 | dasatinib -0.09 | [2] 0.014 | [3] 0.045 | quisinostat -0.019 | tipifarnib -0.084 | [4] 0.058 | [5] -0.055 | [6] -0.025

DSG2 (UniProt Q14126)
inactive: nilotinib -0.016 | [1] -0.009 | dasatinib 0.074 | [2] -0.028 | [3] 0.045 | quisinostat -0.02 | tipifarnib -0.035 | [4] 0.034 | [5] 0.089 | [6] 0.006

DYNC1LI2 (UniProt O43237)
inactive: nilotinib -0.022 | [1] 0.074 | dasatinib -0.011 | [2] 0.057 | [3] 0.005 | quisinostat -0.198 | tipifarnib -0.009 | [4] 0.034 | [5] 0.016 | [6] -0.011

DUSP12 (UniProt Q9UNI6)
inactive: nilotinib -0.026 | [1] 0.011 | dasatinib -0.009 | [2] -0.025 | [3] 0.008 | quisinostat 0.001 | tipifarnib -0.014 | [4] 0.003 | [5] -0.02 | [6] 0.02

DUSP23 (UniProt Q9BVJ7)
inactive: nilotinib 0.015 | [1] 0.073 | dasatinib 0.049 | [2] 0.144 | [3] -0.002 | quisinostat 0.015 | tipifarnib 0.034 | [4] -0.029 | [5] -0.033 | [6] 0.045

DUSP9 (UniProt Q99956)
inactive: nilotinib -0.028 | [1] 0.012 | dasatinib -0.015 | [2] 0.043 | [3] 0.07 | quisinostat 0.005 | tipifarnib 0.017 | [4] 0.011 | [5] 0.014 | [6] -0.096

EEFSEC (UniProt P57772)
inactive: nilotinib 0.004 | [1] 0.01 | dasatinib -0.067 | [2] -0.03 | [3] 0.007 | quisinostat -0.043 | tipifarnib -0.003 | [4] 0.052 | [5] 0 | [6] -0.019

E4F1 (UniProt Q66K89)
inactive: nilotinib -0.375 | [1] -0.063 | dasatinib -0.024 | [2] 0.235 | [3] -0.073 | quisinostat 0.01 | tipifarnib 0.027 | [4] 0.008 | [5] 0.019 | [6] -0.078

EDC4 (UniProt Q6P2E9)
inactive: nilotinib 0 | [1] 0.007 | dasatinib -0.058 | [2] 0.007 | [3] -0.002 | quisinostat -0.071 | tipifarnib -0.001 | [4] 0.01 | [5] 0.027 | [6] 0.011

DST (UniProt Q03001)
inactive: nilotinib -0.002 | [1] -0.035 | dasatinib -0.023 | [2] 0.045 | [3] -0.06 | quisinostat -0.118 | tipifarnib 0.069 | [4] 0.022 | [5] 0.027 | [6] -0.107

EBP (UniProt Q15125)
inactive: nilotinib 0.081 | [1] -0.016 | dasatinib -0.05 | [2] 0.018 | [3] -0.137 | quisinostat 0.038 | tipifarnib -0.03 | [4] 0.042 | [5] -0.006 | [6] -0.05

DTX2 (UniProt Q86UW9)
inactive: nilotinib -0.053 | [1] -0.002 | dasatinib 0.007 | [2] -0.057 | [3] 0.042 | quisinostat -0.115 | tipifarnib 0.051 | [4] -0.055 | [5] -0.023 | [6] 0.041

DUS4L (UniProt O95620)
inactive: nilotinib 0.063 | [1] -0.071 | dasatinib 0.044 | [2] 0.14 | [3] -0.026 | quisinostat -0.11 | tipifarnib -0.082 | [4] 0.028 | [5] 0.005 | [6] 0.004

ECPAS (UniProt Q5VYK3)
inactive: nilotinib -0.011 | [1] 0.009 | dasatinib -0.052 | [2] -0.001 | [3] 0.023 | quisinostat 0.007 | tipifarnib -0.008 | [4] 0.03 | [5] 0.008 | [6] 0.022

EHD1 (UniProt Q9H4M9)
inactive: nilotinib 0.022 | [1] -0.017 | dasatinib -0.07 | [2] -0.018 | [3] -0.004 | quisinostat -0.009 | tipifarnib 0.001 | [4] 0.03 | [5] 0.011 | [6] -0.003

EDEM1 (UniProt Q92611)
inactive: nilotinib 0.138 | [1] -0.177 | dasatinib -0.034 | [2] 0.183 | [3] 0.079 | quisinostat 0.104 | tipifarnib -0.064 | [4] -0.021 | [5] 0.047 | [6] -0.031

DROSHA (UniProt Q9NRR4)
inactive: nilotinib -0.083 | [1] -0.03 | dasatinib -0.021 | [2] 0.009 | [3] 0.012 | quisinostat -0.043 | tipifarnib 0.026 | [4] 0.01 | [5] 0.035 | [6] 0.065

DYRK1A (UniProt Q13627)
inactive: nilotinib -0.018 | [1] 0.062 | dasatinib -0.021 | [2] 0.031 | [3] 0.033 | quisinostat -0.026 | tipifarnib -0.06 | [4] 0.072 | [5] -0.01 | [6] -0.013

EBNA1BP2 (UniProt Q99848)
inactive: nilotinib 0.016 | [1] -0.026 | dasatinib 0.015 | [2] -0.004 | [3] -0.017 | quisinostat 0.094 | tipifarnib 0.024 | [4] -0.006 | [5] -0.011 | [6] -0.018

EBAG9 isoform 2 (UniProt O00559)
inactive: nilotinib 0.016 | [1] 0.02 | dasatinib 0.073 | [2] -0.017 | [3] 0 | quisinostat 0.005 | tipifarnib -0.007 | [4] 0.148 | [5] -0.016 | [6] -0.063

EEF1A2 (UniProt Q05639)
inactive: nilotinib 0 | [1] -0.026 | dasatinib -0.033 | [2] 0 | [3] -0.018 | quisinostat -0.028 | tipifarnib 0.057 | [4] 0.023 | [5] 0.001 | [6] -0.004

ECM1 isoform 4 (UniProt Q16610)
inactive: nilotinib -0.007 | [1] 0.008 | dasatinib -0.025 | [2] 0.034 | [3] -0.034 | quisinostat -0.007 | tipifarnib -0.015 | [4] -0.047 | [5] 0.007 | [6] -0.016

EFCAB14 (UniProt O75071)
inactive: nilotinib -0.16 | [1] 0.016 | dasatinib 0.049 | [2] 0.001 | [3] -0.005 | quisinostat -0.001 | tipifarnib 0.013 | [4] 0.053 | [5] -0.005 | [6] 0.013

EEF2K (UniProt O00418)
inactive: nilotinib 0.054 | [1] 0.003 | dasatinib -0.029 | [2] -0.004 | [3] -0.007 | quisinostat -0.053 | tipifarnib 0.003 | [4] 0.069 | [5] -0.023 | [6] 0.003

ECH1 (UniProt Q13011)
inactive: nilotinib -0.008 | [1] -0.019 | dasatinib 0.195 | [2] -0.003 | [3] 0.02 | quisinostat -0.008 | tipifarnib 0.022 | [4] 0.001 | [5] -0.022 | [6] 0.193

Copied from the results shown (2 entries):
EFCAB14 (UniProt O75071)
inactive: nilotinib -0.16 | [1] 0.016 | dasatinib 0.049 | [2] 0.001 | [3] -0.005 | quisinostat -0.001 | tipifarnib 0.013 | [4] 0.053 | [5] -0.005 | [6] 0.013

EEF2K (UniProt O00418)
inactive: nilotinib 0.054 | [1] 0.003 | dasatinib -0.029 | [2] -0.004 | [3] -0.007 | quisinostat -0.053 | tipifarnib 0.003 | [4] 0.069 | [5] -0.023 | [6] 0.003

Additional records follow:

DUS2 (UniProt Q9NX74)
inactive: nilotinib 0.021 | [1] -0.035 | dasatinib 0.037 | [2] 0.011 | [3] -0.024 | quisinostat 0.088 | tipifarnib -0.019 | [4] 0 | [5] 0.014 | [6] -0.045

DTNBP1 (UniProt Q96EV8)
inactive: nilotinib 0.02 | [1] -0.023 | dasatinib 0.03 | [2] -0.015 | [3] 0.061 | quisinostat -0.008 | tipifarnib 0.053 | [4] 0.054 | [5] -0.022 | [6] 0.015

DYNC2LI1 (UniProt Q8TCX1)
inactive: nilotinib -0.009 | [1] 0.031 | dasatinib -0.001 | [2] 0.045 | [3] 0.044 | quisinostat -0.035 | tipifarnib -0.048 | [4] 0.134

EEF1AKNMT (UniProt Q8N6R0)
inactive: nilotinib 0.006 | [1] -0.008 | dasatinib -0.044 | [2] -0.011 | [3] 0.043 | quisinostat -0.093 | tipifarnib -0.003 | [4] 0.045 | [5] -0.013 | [6] 0.01
